Laboratory results: PubChem BioAssay AID1224828 (NIAID, 2016)
Here is an unselected part of about 17,000 deposited reagents. Over the whole deposit, 762 (4.5%) are marked active. 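Active calls include both raised and lowered p65 entry, mostly lowered; wells with fewer than 50 cells lack a z-score.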 Raw values are not corrected between plates. Entries without a mark were called inactive. Reagent sequences are not shown.

Aim: 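Knock-downs that increase or decrease LPS-induced p65 nuclear translocation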 (primary screen)
Cells: mouse RAW264.7 G9 macrophage reporter cells (GFP-p65, Tnf promoter-mCherry)
Reagent: siRNA pool against mouse genes, 100 nM
Time to read-out: 2 days siRNA transfection, then 40 min LPS before fixation
Challenge: LPS (Salmonella minnesota R595) at 10 ng/ml
Read-out: 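Microscopy ratio of nuclear to perinuclear-ring GFP-p65 signal, scaled to the plate median; gene score is the average of two replicate robust z-scores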
Direction: p65 translocation robust z-score: higher = more nuclear NF-kappaB p65 after LPS than the plate median; nuclear/cytoplasmic p65 ratio: higher = more nuclear NF-kappaB p65
Active means: 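Active if robust z is above 3.3 (negative regulators) or below -1.56, the Tlr4 control median (positive regulators); activity score 50 or more; control wells not called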
Meaning of the calls: active = hit (p65 shift raised or lowered); inactive = no clear change

gene | p65 translocation robust z-score | nuclear/cytoplasmic p65 ratio, rep 1 | nuclear/cytoplasmic p65 ratio, rep 2 | low cell count flag
Selp (selectin, platelet) | 0.79 | 1.62 | 1.72 | enough cells to score
Pkn3 (protein kinase N3) | 1.27 | 1.92 | 1.51 | enough cells to score
Ocln (occludin) | 0.18 | 1.52 | 1.39 | enough cells to score
Endov (endonuclease V) | -0.19 | 1.43 | 1.42 | enough cells to score
Col4a6 (collagen, type IV, alpha 6) | -0.89 | 1.35 | 1.26 | enough cells to score
Mcam (melanoma cell adhesion molecule) | -1.05 | 1.27 | 1.24 | enough cells to score
Actr3 (ARP3 actin-related protein 3) | -1.23 | 1.42 | 1.45 | enough cells to score
Fbxw2 (F-box and WD-40 domain protein 2) | – | 1.38 | 1.1 | fewer than 50 cells per well; well left out of scoring
Zfp729a (zinc finger protein 729a) | 0.45 | 1.46 | 1.57 | enough cells to score
Trpc6 | -0.57 | 1.45 | 1.45 | enough cells to score
Inka2 (inka box actin regulator 2) | 1.35 | 1.59 | 1.75 | enough cells to score
Mtx1 (metaxin 1) | -0.29 | 1.47 | 1.25 | enough cells to score
Ogg1 (8-oxoguanine DNA-glycosylase 1) | 0.47 | 1.51 | 1.47 | enough cells to score
Uba3 (ubiquitin-like modifier activating enzyme 3) | 0.07 | 1.56 | 1.48 | enough cells to score
Tcirg1 | -1.28 | 1.39 | 1.29 | enough cells to score
Hip1 (huntingtin interacting protein 1) | -0.13 | 1.44 | 1.37 | enough cells to score
Gnb2 (guanine nucleotide binding protein (G protein), beta 2) | -0.33 | 1.78 | 1.51 | enough cells to score
Ang4 (angiogenin, ribonuclease A family, member 4) | 0.27 | 1.75 | 1.57 | enough cells to score
Ttc24 (tetratricopeptide repeat domain 24) | 0.36 | 1.39 | 1.62 | enough cells to score
Mindy1 (MINDY lysine 48 deubiquitinase 1) | – | 1.04 | 0.871 | fewer than 50 cells per well; well left out of scoring
Npm3 (nucleoplasmin 3) | -1.15 | 1.59 | 1.31 | enough cells to score
Ar (androgen receptor) | -0.2 | 1.6 | 1.58 | enough cells to score
Srsf1 (serine and arginine-rich splicing factor 1) | – | 1.4 | 1.16 | fewer than 50 cells per well; well left out of scoring
A2m (alpha-2-macroglobulin) | -0.83 | 1.52 | 1.46 | enough cells to score
Pate6 (prostate and testis expressed 6) | -1.71 (active) | 1.32 | 1.31 | enough cells to score
Pcare (photoreceptor cilium actin regulator) | -0.47 | 1.66 | 1.59 | enough cells to score
Atp6v1g1 (ATPase, H+ transporting, lysosomal V1 subunit G1) | -0.69 | 1.46 | 1.45 | enough cells to score
Aph1c (aph1 homolog C, gamma secretase subunit) | 1.48 | 1.7 | 1.69 | enough cells to score
Matcap2 (microtubule associated tyrosine carboxypeptidase 2) | 0.03 | 1.49 | 1.49 | enough cells to score
Gcc1 (golgi coiled coil 1) | -1.02 | 1.5 | 1.27 | enough cells to score
Klkb1 (kallikrein B, plasma 1) | -0.53 | 1.37 | 1.34 | enough cells to score
Prss3b (serine protease 3B) | -0.45 | 1.58 | 1.51 | enough cells to score
Sirt7 (sirtuin 7) | -0.29 | 1.4 | 1.19 | enough cells to score
Nrip3 (nuclear receptor interacting protein 3) | 0.63 | 1.83 | 1.55 | enough cells to score
Dennd1c (DENN domain containing 1C) | -1.85 (active) | 1.07 | 1.04 | enough cells to score
Dock7 (dedicator of cytokinesis 7) | – | 1.26 | 1.24 | fewer than 50 cells per well; well left out of scoring
Cstpp1 | -0.98 | 1.4 | 1.32 | enough cells to score
Ndufs8 (NADH:ubiquinone oxidoreductase core subunit S8) | -1.59 (active) | 1.16 | 1.21 | enough cells to score
Tmem33 (transmembrane protein 33) | 0.39 | 1.57 | 1.52 | enough cells to score
Zdhhc15 (zinc finger, DHHC domain containing 15) | 0.56 | 1.55 | 1.26 | enough cells to score
Or9q2 (olfactory receptor family 9 subfamily Q member 2) | 0.74 | 1.74 | 1.5 | enough cells to score
Ppp1r12c (protein phosphatase 1, regulatory subunit 12C) | -0.75 | 1.37 | 1.33 | enough cells to score
Pira1 (paired-Ig-like receptor A1) | 0.6 | 1.5 | 1.25 | enough cells to score
Mpv17 (MpV17 mitochondrial inner membrane protein) | -0.2 | 1.96 | 1.38 | enough cells to score
Stfa3 (stefin A3) | 0.92 | 1.6 | 1.29 | enough cells to score
Nqo2 (N-ribosyldihydronicotinamide quinone reductase 2) | -0.56 | 1.24 | 1.46 | enough cells to score
Il12a (interleukin 12a) | 0.29 | 1.5 | 1.38 | enough cells to score
Nphp1 (nephronophthisis 1 (juvenile) homolog (human)) | -0.97 | 1.37 | 1.23 | enough cells to score
Kansl2 (KAT8 regulatory NSL complex subunit 2) | – | 1.26 | 1.6 | fewer than 50 cells per well; well left out of scoring
Otud6b (OTU domain containing 6B) | 0.68 | 1.49 | 1.79 | enough cells to score
Cuedc2 (CUE domain containing 2) | -0.13 | 1.47 | 1.85 | enough cells to score
Trim3 (tripartite motif-containing 3) | – | 1.32 | 1.26 | fewer than 50 cells per well; well left out of scoring
Sack1a (scaffolding CK1 anchoring protein A) | -0.84 | 1.47 | 1.68 | enough cells to score
Zfp36 (zinc finger protein 36) | 0.48 | 1.5 | 1.28 | enough cells to score
Gse1 (genetic suppressor element 1, coiled-coil protein) | -0.98 | 1.22 | 1.42 | enough cells to score
Slc36a1 | – | 1.13 | 0.971 | fewer than 50 cells per well; well left out of scoring
Mtss2 (MTSS I-BAR domain containing 2) | – | 1.04 | 1.09 | fewer than 50 cells per well; well left out of scoring
Zfp422 (zinc finger protein 422) | 0.18 | 1.56 | 1.36 | enough cells to score
Mrgprb5 (MAS-related GPR, member B5) | 1.07 | 1.83 | 1.86 | enough cells to score

Reagents listed above called active:
gene | p65 translocation robust z-score | nuclear/cytoplasmic p65 ratio, rep 1 | nuclear/cytoplasmic p65 ratio, rep 2 | low cell count flag
Pate6 (prostate and testis expressed 6) | -1.71 (active) | 1.32 | 1.31 | enough cells to score
Dennd1c (DENN domain containing 1C) | -1.85 (active) | 1.07 | 1.04 | enough cells to score
Ndufs8 (NADH:ubiquinone oxidoreductase core subunit S8) | -1.59 (active) | 1.16 | 1.21 | enough cells to score
